{"sequences": {"note": "Amino acid sequences for entries named in this document (tags omitted). Residues count along the entry.", "UniProt O13728, residues 1-234": "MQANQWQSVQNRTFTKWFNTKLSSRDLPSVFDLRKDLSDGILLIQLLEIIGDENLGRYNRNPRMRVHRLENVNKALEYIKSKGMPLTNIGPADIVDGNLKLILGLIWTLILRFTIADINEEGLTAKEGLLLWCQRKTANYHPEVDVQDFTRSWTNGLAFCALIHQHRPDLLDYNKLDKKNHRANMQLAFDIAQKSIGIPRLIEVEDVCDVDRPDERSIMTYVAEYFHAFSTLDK"}, "source": "paper PMC4824898", "target": "actin-binding domain (ABD) of S. pombe α-actinin (Schizosaccharomyces pombe) (UniProt O13728)", "assay": "SEC; gel filtration on Superdex 200 10/300GL in 50 mM Tris-HCl, pH 7.6, 200 mM KCl (also Sephacryl S-400HR in 25 mM sodium phosphate, pH 7.6, 150 mM NaCl); elution compared with reference proteins; dimer formation judged from apparent size; both purified", "note": "No constants are given. Whether binding was seen depends on the method and setting."}
{"substance": "actin-binding domain (ABD) of S. pombe α-actinin (from UniProt O13728 1-234) (domain or fragment)", "values": [{"measurement": "binding", "result": "no binding"}]}
